{"source": "PubChem BioAssay AID720505 | Drosophila RNAi Screening Center – 2013", "assay": "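Genes needed for store-operated calcium entry in fly cells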 (primary screen)", "system": "Drosophila S2R+ cells", "reagent": "long dsRNA against Drosophila genes", "challenge": "thapsigargin (2 µM) in calcium-free buffer to empty internal stores, then 2 mM calcium added back", "measurement": "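Stores emptied by 2 µM thapsigargin without calcium, then 2 mM calcium re-added; fluo-4 fluorescence followed by FLIPR in 384-well plates, per-well averaged endpoint, raw; two screen passes, some wells retested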", "reading the numbers": "calcium signal and retest calcium signal: higher = more calcium entry after store depletion", "call rule": "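About 1500 genes called as lowering calcium entry, by varying amounts, judged against per-plate control wells with STIM1 as positive and Rho1 as negative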", "meaning of the calls": "active = called as lowering calcium entry; inactive = not called", "note": "The screen tested about 20,000 reagents; this is a random part of those with a known target gene and a result. Over the whole deposit, about 2,100 (10%) got an active call. 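Raw plate signals without normalisation; calls rest on control-based scores that were not deposited; replicate 2 separates called from uncalled poorly.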 The numbers tell different reagents against one gene apart. The record does not give: the amount of reagent, the time to read-out."}
{"target":"Osi21","reagent no.":1,"calcium signal, replicate 1":175,"calcium signal, replicate 2":169,"Call":"inactive"}
{"target":"Cp7Fa","reagent no.":1,"calcium signal, replicate 1":200,"calcium signal, replicate 2":89.3,"Call":"inactive"}
{"target":"Cp7Fa","reagent no.":2,"calcium signal, replicate 1":220,"calcium signal, replicate 2":110,"Call":"inactive"}
{"target":"CG42795","reagent no.":1,"calcium signal, replicate 1":67.7,"calcium signal, replicate 2":109,"Call":"active"}
{"target":"Idgf5","reagent no.":1,"calcium signal, replicate 1":156,"calcium signal, replicate 2":88,"Call":"inactive"}
{"target":"Als2","reagent no.":1,"calcium signal, replicate 1":136,"calcium signal, replicate 2":103,"Call":"inactive"}
{"target":"Rab23","reagent no.":1,"calcium signal, replicate 1":125,"calcium signal, replicate 2":188,"Call":"inactive"}
{"target":"CG14664","reagent no.":1,"calcium signal, replicate 1":117,"calcium signal, replicate 2":92.7,"Call":"inactive"}
{"target":"CG14450","reagent no.":1,"calcium signal, replicate 1":79.1,"calcium signal, replicate 2":110,"Call":"inactive"}
{"target":"ACXB","reagent no.":1,"calcium signal, replicate 1":91.5,"calcium signal, replicate 2":133,"Call":"inactive"}
{"target":"Gr89a","reagent no.":1,"calcium signal, replicate 1":114,"calcium signal, replicate 2":140,"Call":"inactive"}
{"target":"fsd","reagent no.":1,"calcium signal, replicate 1":108,"calcium signal, replicate 2":162,"Call":"inactive"}
{"target":"CG15927","reagent no.":1,"calcium signal, replicate 1":51.9,"calcium signal, replicate 2":104,"Call":"active"}
{"target":"NK7.1","reagent no.":1,"calcium signal, replicate 1":102,"calcium signal, replicate 2":151,"Call":"inactive"}
{"target":"eIF3l","reagent no.":1,"calcium signal, replicate 1":86.9,"calcium signal, replicate 2":69.8,"Call":"inactive"}
{"target":"CG10383","reagent no.":1,"calcium signal, replicate 1":102,"calcium signal, replicate 2":93.1,"Call":"inactive"}
{"target":"tx","reagent no.":1,"calcium signal, replicate 1":111,"calcium signal, replicate 2":103,"Call":"inactive"}
{"target":"GatB","reagent no.":1,"calcium signal, replicate 1":223,"calcium signal, replicate 2":87.3,"Call":"inactive"}
{"target":"CG12496","reagent no.":1,"calcium signal, replicate 1":96.4,"calcium signal, replicate 2":118,"Call":"inactive"}
{"target":"rb","reagent no.":1,"calcium signal, replicate 1":193,"calcium signal, replicate 2":110,"Call":"inactive"}
{"target":"serp","reagent no.":1,"calcium signal, replicate 1":116,"calcium signal, replicate 2":138,"Call":"inactive"}
{"target":"serp","reagent no.":2,"calcium signal, replicate 1":111,"calcium signal, replicate 2":181,"Call":"inactive"}
{"target":"EndoG","reagent no.":1,"calcium signal, replicate 1":137,"calcium signal, replicate 2":200,"retest calcium signal, replicate 1":104,"retest calcium signal, replicate 2":120,"Call":"inactive"}
{"target":"EndoG","reagent no.":2,"calcium signal, replicate 1":164,"calcium signal, replicate 2":215,"Call":"inactive"}
{"target":"Pif1A","reagent no.":1,"calcium signal, replicate 1":97.1,"calcium signal, replicate 2":162,"Call":"inactive"}
{"target":"raptor","reagent no.":1,"calcium signal, replicate 1":264,"calcium signal, replicate 2":84.3,"Call":"inactive"}
{"target":"vlc","reagent no.":1,"calcium signal, replicate 1":197,"calcium signal, replicate 2":217,"Call":"inactive"}
{"target":"CSN4","reagent no.":1,"calcium signal, replicate 1":79.1,"calcium signal, replicate 2":82.4,"Call":"inactive"}
